These are yes or no findings as the source states them, for the method shown. Binding seen in cells or lysates may run through a third protein. Some entries that bind do so weakly or less than the wild type.
Target: STING-ER Exit Protein (STEEP) (human (endogenous in THP1)) (UniProt Q9H5V9)
Assay: co-IP; endogenous STING or STEEP immunoprecipitated from THP1 cells pre-treated with mock or MβCD (2 mM) and then stimulated with cGAMP (50 µg/ml); IgG from sheep/rabbit serum as negative controls; immunoblot

Protein sequences, listed by entry. Tags and fused reporters are not part of them.
UniProt Q86WV6: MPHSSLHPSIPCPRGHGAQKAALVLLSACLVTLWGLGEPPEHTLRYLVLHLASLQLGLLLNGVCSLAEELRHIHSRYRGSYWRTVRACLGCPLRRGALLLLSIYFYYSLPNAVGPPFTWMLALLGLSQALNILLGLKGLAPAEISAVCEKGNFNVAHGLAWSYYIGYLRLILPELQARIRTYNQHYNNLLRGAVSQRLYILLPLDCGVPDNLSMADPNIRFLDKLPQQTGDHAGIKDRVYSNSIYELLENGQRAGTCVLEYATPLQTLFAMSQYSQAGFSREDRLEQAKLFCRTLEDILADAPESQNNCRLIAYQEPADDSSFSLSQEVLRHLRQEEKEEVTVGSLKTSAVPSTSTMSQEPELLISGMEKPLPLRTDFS

STING (Stimulator of interferon genes) (from UniProt Q86WV6 1-379)
binding: binds

Source: PMC10980718
